This is one part of the list. These are further read-outs of the screen, such as a control signal, another cell line or another target. No call is given for them. The list favours compounds with an active or inconclusive main result. Words in brackets tell the shape of the fitted curve; partial curves, single points and poor fits give uncertain potencies.
Test: qHTS Assay for Lipid Storage Modulators in Drosophila S3 Cells;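 on cell number change: cells counted by Cell Tracker Red CMTPX staining in the red channel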
Conditions: BODIPY lipid droplet fluorescence, 18-24 h; for cell number change: measured here: cell count max response, cells fed with added oleic acid
Method in brief: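 Drosophila S3 cells got compounds at several concentrations plus oleic acid (400 uM solution). Laser-scanning cytometry with 488 nm excitation read lipid droplets at 500-530 nm and cells at 575-640 nm. Percent activity was relative to 20 uM Triacsin C.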

[1] = measured here: lipid fluorescence (Fed channel) AC50, cells fed with added oleic acid
[2] = measured here: cell number channel AC50, cells fed with added oleic acid

| SMILES | AC50 [1] | cell number change [%] | AC50 [2] |
| --- | --- | --- | --- |
| Cc1ccc(OCCOC(=O)c2cc(S(=O)(=O)N3CCCCC3)ccc2N2CCOCC2)cc1 | 6.51 µM [falling, partial curve] |  |  |
| Cc1cc(OCC(=O)Nc2ccc(CCO)cc2)c2c(C)c(C)c(=O)oc2c1 |  | -14.5 |  |
| CCOC(=O)CNC(=O)CSc1nnnn1-c1cc(C)ccc1C |  | 48.9 | 29.1 µM [rising, single point] |
| COc1ccc(C(=O)CSc2nc(SC)ns2)cc1OC | 4.11 µM [rising, partial curve] | -8.16 |  |
| Cc1cc(C)nc(N2CCCC(C(=O)NCc3cccc(C(F)(F)F)c3)C2)n1 (configuration not stated) | 1.84 µM [rising, single point] | -21.6 | 4.11 µM [falling, full curve, poor fit] |
| COc1ccc(C(=O)NNC(=O)c2ccccc2[N+](=O)[O-])cc1Br | 18.4 µM [rising, single point] | 11.3 |  |
| Cc1ccc(C(c2sc3nc(C)nn3c2O)N2CCN(c3ccc(F)cc3)CC2)cc1 (configuration not stated) | 0.092 µM [falling, full curve, poor fit] | -12.6 |  |
| COc1ccc(OC)c(-c2cc(C3CCN(C(=O)OC(C)(C)C)CC3)[nH]n2)c1 | 29.1 µM [falling, single point] | -49.7 | 18.4 µM [falling, single point] |
| COc1ccc(NC2CC(=O)N(c3cc([N+](=O)[O-])ccc3C)C2=O)cc1 (configuration not stated) | 3.26 µM [falling, full curve, poor fit] | -14.3 | 0.116 µM [falling, full curve, poor fit] |
| COc1ccc(N(C)S(=O)(=O)c2cccc(C(=O)NCC3CCCO3)c2)cc1 (configuration not stated) | 6.51 µM [rising, single point] | 12.8 |  |
| CSc1ccccc1NC(=O)C1=CC(c2ccc(C)cc2)=NS(=O)(=O)N1C | 1.3 µM [falling, partial curve] | -16.7 | 2.59 µM [falling, partial curve] |
| Cn1c(=O)[nH]c(=O)c2c1nc(SCCC(=O)O)n2Cc1cccc(Br)c1 |  | 4.67 |  |
| CC(=O)c1ccc(NC(=O)CSCCO)cc1 | 25.9 µM [falling, single point] | -28.9 |  |
| COC(=O)c1ccccc1S(=O)(=O)N1CCC(C(=O)NC2=NCCS2)CC1 | 9.2 µM [rising, partial curve, poor fit] | 1.04 |  |
| CSc1nsc(SC)c1NC(=O)N1CCCC1 |  | -0.297 |  |
| COc1cccc(N(CC(=O)N2CCN(C)CC2)S(=O)(=O)c2ccccc2)c1 | 6.51 µM [falling, single point] | -14.5 |  |
| CC(C)(C)c1ccc(-c2nc(C#N)c(NCc3cccnc3)o2)cc1 | 29.1 µM [falling, single point] | 59.7 | 3.26 µM [rising, full curve] |
| COc1ccc(Cl)cc1NC(=O)C1Cc2cc(S(=O)(=O)N3CCCC3)ccc2N1C(C)=O (configuration not stated) |  | -34.3 | 29.1 µM [falling, single point] |
| Cc1ccccc1Nc1nc(N)nc(CSCC(=O)Nc2cccc(Br)c2)n1 | 0.116 µM [rising, full curve] | 1.88 |  |
| COc1ccc(S(=O)(=O)N2CCOC2CNC(=O)C(=O)NCCc2ccccc2)cc1OC (configuration not stated) | 25.9 µM [rising, single point] | 16.7 |  |

| SMILES | AC50 [1] | cell number change [%] | AC50 [2] |
| --- | --- | --- | --- |
| O=C(CSc1nnc2c(n1)[nH]c1ccccc12)NCc1ccccc1F | 0.651 µM [falling, full curve] | 20.4 |  |
| O=C1CCN(Cc2ccc(O)cc2)CCN1[C@H](CO)c1ccccc1 | 29.1 µM [rising, single point] | 11.4 | 6.51 µM [rising, single point] |
| CC(NC(=O)c1ccco1)C(=O)OC(C)C(=O)NCc1ccccc1 (configuration not stated) |  | -74.6 |  |
| COCCN(CCOC)C(=O)c1ccc(CSc2nc3ccccc3s2)cc1 |  | -9.06 |  |
| COc1ccccc1OCc1nnc(SCC(=O)N2CCCCC2)n1-c1ccccc1 |  | 1.26 |  |
| O=C(NC1CCCCCC1)C1CCN(S(=O)(=O)c2cccc3cccnc23)CC1 | 0.206 µM [rising, partial curve, poor fit] |  |  |
| CCc1nnc(NC(=O)c2cc(S(=O)(=O)N3CCN(c4ccccc4)CC3)ccc2Cl)s1 |  | -24.3 |  |
| COCC1CCCN(C(=O)c2ccc3oc(CCCc4ccccc4)nc3c2)C1 (configuration not stated) | 14.6 µM [falling, partial curve] |  |  |
| CCCc1nc([N+](=O)[O-])c(S(=O)(=O)c2ccccc2)n1CC(C)C | 11.6 µM [falling, partial curve] | 8.34 |  |
| CC(NC(=O)C12CC3CC(C1)CC(n1cncn1)(C3)C2)C12CC3CC(CC(C3)C1)C2 (configuration not stated) | 0.517 µM [falling, full curve, poor fit] | -40.1 | 29.1 µM [falling, single point] |
| N#Cc1c(NC(=O)c2cnccn2)sc2c1CCCC2 | 6.51 µM [rising, partial curve, poor fit] | 11.5 |  |
| COc1ccc([N+](=O)[O-])cc1-c1nc2ccccc2nc1-c1ccccc1 |  | 13.1 | 0.082 µM [rising, full curve, poor fit] |
| NC(=O)c1ccc(N2CCN(S(=O)(=O)c3ccccc3)CC2)c([N+](=O)[O-])c1 |  | -22.4 |  |
| CCn1c(SCC(=O)Nc2nc3ccc(C)cc3s2)nc2c(c1=O)SC(C)C2 (configuration not stated) | 23.1 µM [falling, single point] | -3.01 |  |
| CCOC(=O)c1c(-c2ccccc2)csc1NC(=O)/C(C#N)=C/c1ccc(O)c(OC)c1 | 29.1 µM [falling, single point] | -10.6 |  |
| C=CCOc1ccc(Br)cc1CNCCCN1CCOCC1 | 23.1 µM [falling, single point] | -20.9 |  |
| O=C(COc1ccc(Cl)cc1)Nc1cccc(S(=O)(=O)NCc2ccco2)c1 | 0.82 µM [falling, full curve] | -15.9 |  |
| O=C(O)COc1ccccc1-c1nc(-c2ccccc2)c(-c2ccccc2)[nH]1 | 29.1 µM [rising, single point] | 3.41 |  |
| COCCNC(=S)N1CCC(NC(=O)c2ccco2)CC1 | 3.66 µM [falling, single point] | 2.98 |  |
| COc1ccc(C(=O)/C(C#N)=N/Nc2ccccc2[N+](=O)[O-])cc1 | 29.1 µM [falling, single point] | 9.2 |  |

Four of the compounds above, with bars between the fields.
SMILES | AC50 [1] | cell number change [%] | AC50 [2]
COc1ccccc1OCc1nnc(SCC(=O)N2CCCCC2)n1-c1ccccc1 |  | 1.26 | 
O=C(NC1CCCCCC1)C1CCN(S(=O)(=O)c2cccc3cccnc23)CC1 | 0.206 µM [rising, partial curve, poor fit] |  | 
CCc1nnc(NC(=O)c2cc(S(=O)(=O)N3CCN(c4ccccc4)CC3)ccc2Cl)s1 |  | -24.3 | 
NC(=O)c1ccc(N2CCN(S(=O)(=O)c3ccccc3)CC2)c([N+](=O)[O-])c1 |  | -22.4 | 

No new results follow: entries from further up.

| SMILES | AC50 [1] | cell number change [%] | AC50 [2] |
| --- | --- | --- | --- |
| O=C(O)COc1ccccc1-c1nc(-c2ccccc2)c(-c2ccccc2)[nH]1 | 29.1 µM [rising, single point] | 3.41 |  |
| COCCNC(=S)N1CCC(NC(=O)c2ccco2)CC1 | 3.66 µM [falling, single point] | 2.98 |  |

The list continues.

| SMILES | AC50 [1] | cell number change [%] | AC50 [2] |
| --- | --- | --- | --- |
| COc1ccc(-c2csc(N3C(=O)C4C5c6ccccc6C(c6ccccc65)[C@@H]4C3=O)n2)cc1 (some centres not stated) | 0.731 µM [rising, full curve] |  | 0.731 µM [rising, partial curve, poor fit] |
| CC(C)(C)n1[nH]c2c3c(ccc2c1=O)C(=O)c1ccccc1C3=O |  | 11 | 2.91 µM [falling, single point] |
| O=C(c1cc(S(=O)(=O)N2CCOCC2)c(Cl)cc1Cl)N1CCCCC1CO (configuration not stated) |  | -9.29 |  |
| COc1ccc(C)cc1N(C(=O)c1ccccc1F)c1nc2ccccc2s1 | 20.6 µM [rising, single point] | -3.13 |  |
| Nc1nonc1-n1nnc(C(=O)N/N=C/c2ccc(OCc3ccccc3F)cc2)c1CNc1ccccc1 |  | -6.18 |  |
| Cc1n[nH]c(C)c1C(=O)CC1(O)C(=O)N(Cc2ccccc2)c2ccc(Br)cc21 (configuration not stated) | 0.206 µM [rising, full curve, poor fit] |  | 0.184 µM [rising, full curve, poor fit] |
| CCOC(=O)C(CC)Sc1nnc2c3cc(C)ccc3n(C)c2n1 (configuration not stated) | 29.1 µM [falling, single point] | 33.5 | 4.61 µM [rising, full curve] |
| COc1ccc(OCC(O)CNCCOc2ccccc2OC)c(C(C)(C)C)c1 (configuration not stated) | 29.1 µM [falling, single point] | -61 | 18.4 µM [falling, single point] |
| CCN(CC)S(=O)(=O)c1ccc(C(=O)Nc2ccc3c(c2)OCCO3)cc1 |  | -14.7 |  |
| COC(=O)C1SCC2C(=O)N(Cc3ccc(Cl)c(Cl)c3)CC(=O)N21 (configuration not stated) | 0.651 µM [falling, partial curve] | 39.1 | 29.1 µM [rising, single point] |
| O=C(NC1CCCCC1)c1cc(-c2cccc(Cl)c2)on1 |  | 10 |  |
| C=CCn1c(=O)c2c(C)c(C)sc2n2c(Nc3ccccc3)nnc12 |  | -12.5 | 0.00461 µM [rising, full curve, poor fit] |
| CCCCOc1ccc(N2C(=O)CC(NCCc3ccc(S(N)(=O)=O)cc3)C2=O)cc1 (configuration not stated) | 1.64 µM [falling, partial curve] |  |  |
| CCOC(=O)Cn1c(=O)c2c(nc(N3CCCCC3)n2C)n(C)c1=O | 2.91 µM [rising, full curve, poor fit] | 6.6 |  |
| Cc1ccc(S(=O)(=O)NNC2CC(=O)N(c3ccc(Br)cc3)C2=O)cc1 (configuration not stated) | 29.1 µM [rising, single point] | 56.8 | 29.1 µM [rising, partial curve, poor fit] |
| O=[N+]([O-])c1ccc(/C=N/Nc2ccnc3cc(Cl)ccc23)o1 |  | 37.2 |  |
| COc1ccc(N2CCN(CCCNC(=O)C(=O)c3c[nH]c4ccccc34)CC2)cc1 |  | -12.5 |  |
| Cc1ccc(S(=O)(=O)N2CCN(Cc3nc4sc5c(c4c(=O)[nH]3)CCCC5)CC2)cc1 | 0.82 µM [falling, full curve] | -3.8 |  |
| Cc1ccc(-c2nc3ccc(Cl)cc3n2OC(C)C(=O)O)cc1 (configuration not stated) |  | 12.4 |  |
| N=c1c(S(=O)(=O)c2ccccc2)cc2c(=O)n3ccccc3nc2n1Cc1ccco1 | 5.17 µM [rising, single point] | -25.2 |  |

Reference: PubChem BioAssay AID2685 (National Center for Advancing Translational Sciences (NCATS), 2010)
